Drawing on the supplement of paper PMC3682954, this text covers cell viability for 88 compounds.

The assay concerns RAW 264.7. Description: cell viability (MTT) relative to vehicle control; higher = more viable cells. Particulars: stimulus: HMGB1 5 ug/ml, 18 h.
[1] abbreviates: compound concentration: 1 ug/ml.

Where “and” joins values, the source holds several entries; their conditions need not be identical. Equal values may be shown once. Where a name gives a salt, the structure may show the parent alone. ± gives the standard deviation of the averaged measurements. Some of the results follow. Repeats are few or missing, and single values can be far off.

For `CCC(Cc1c(I)cc(I)c(N)c1I)C(=O)O` (stereo not drawn), the cell viability (compound concentration: 3 uM) was 106%.
Same read-out and setting: to `CCC(Cc1c(I)cc(I)c(N)c1I)C(=O)O` (stereo not drawn) [Iopanoic acid] belongs 91.3%; to `CCC(NC(C)C)C(O)c1ccc(O)c(O)c1` (stereo not drawn), 90.5%.
On the same count and under the same terms, to `CCC(NC(C)C)C(O)c1ccc(O)c(O)c1` (stereo not drawn) [Isotharine mesylate] belongs 89.3%; to `CCC(NC(C)C)C(O)c1ccc(O)c(O)c1` (stereo not drawn) [Isoetharine mesylate salt], 116%; to `O.O.O.O.O=C([O-])CC(O)(CC(=O)[O-])C(=O)[O-].[Li+].[Li+].[Li+]`, 103%.
On to `N#CC(c1ccc(Cl)cc1)c1c(Cl)cc(-n2ncc(=O)[nH]c2=O)cc1Cl` (stereo not drawn) [Diclazuril], for which the cell viability (compound concentration: 3 uM) is 89.8 ± 5%.
Take `O=c1ccc2ccc(O)c(O)c2o1` [Daphnetin]: the cell viability (compound concentration: 3 uM) stood at 110%.
The same measure, in the same setting: to `CC(=O)NCCc1c[nH]c2ccc(O)cc12` [N-Acetyl-5-hydroxytryptamine] belongs 101%.
The same measure, in the same setting: to `COc1cc(OC)c(C(=O)CCCN2CCCC2)c(OC)c1` [Buflomedil hydrochloride] belongs 122%; to `COc1cc(OC)c(C(=O)CCCN2CCCC2)c(OC)c1`, 99.4 ± 2.5%; to `CCCN(CCC)C(=O)C(CCC(=O)O)NC(=O)c1ccccc1` (stereo not drawn), 114%.
The same measure, in the same setting: then `CCCN(CCC)C(=O)C(CCC(=O)O)NC(=O)c1ccccc1` (stereo not drawn) [Proglumide], with 114 ± 2.5%.
Take `CC[C@H](CC[C@@H](C)[C@H]1CC[C@H]2[C@@H]3CC=C4C[C@@H](O)CC[C@]4(C)[C@H]3CC[C@]12C)C(C)C` [beta-Sitosterol]: under setting [1], the cell viability came to 108%.
Consider `COC(=O)c1ccccc1O` [Methyl salicylate], for which the cell viability (compound concentration: 3 uM) was determined as 119%.
Same read-out and setting: then `COc1ccc2c(c1)N(C[C@H](C)CN(C)C)c1ccccc1S2` [Methotrimeprazine maleat salt], with 102%.
As to `CC1(C)O[C@@H]2[C@H](O1)[C@@H](CO)O[C@H]2n1ccc(=O)[nH]c1=O` [2',3'-O-Isopropylideneuridine], the cell viability under setting [1] turned out to be 98.5%.
As to `CN1CCC(=C2c3ccccc3CC(=O)c3sccc32)CC1` [Ketotifen fumarate], where the note is “compound concentration: 3 uM”, the cell viability was 91.9 ± 5.2%.
On the same count and under the same terms, to `CN1CCC(=C2c3ccccc3CC(=O)c3sccc32)CC1` belongs 96.2 ± 6.3%; to `CN1CCC(=C2c3ccccc3CC(=O)c3sccc32)CC1` [Ketotifen], 111%.
Turning to `CN1CCCC(CC2c3ccccc3Sc3ccccc32)C1` (stereo not drawn) [Metixene hydrochloride], under “compound concentration: 3 uM”, the cell viability amounted to 89.5%.
Still for that read-out and setting: to `COc1ccccc1N1CCN(CC(O)COc2cccc3ccccc23)CC1` (stereo not drawn) [Naftopidil] belongs 114%.
On the same count and under the same terms, then `COc1ccccc1N1CCN(CC(O)COc2cccc3ccccc23)CC1` (stereo not drawn), with 88.7% and 107%; and `COc1ccccc1N1CCN(CC(O)COc2cccc3ccccc23)CC1` (stereo not drawn) [Naftopidil dihydrochloride], with 104 ± 4.1%; and `CCN1C(=O)NC(c2ccccc2)C1=O` (stereo not drawn) [Ethotoin], with 108%.
For the compound `Cc1cc2c(C(C)C)c(O)c(O)c(C=Nc3ccc(O)c(Cl)c3)c2c(O)c1-c1c(C)cc2c(C(C)C)c(O)c(O)c(C=Nc3ccc(O)c(Cl)c3)c2c1O`, under setting [1], the cell viability is 103%.
On to `CC(C)(Sc1cc(C(C)(C)C)c(O)c(C(C)(C)C)c1)Sc1cc(C(C)(C)C)c(O)c(C(C)(C)C)c1` [Probucol], for which the cell viability (compound concentration: 3 uM) was found to be 106%.
Still for that read-out and setting: then `CC(C)(Sc1cc(C(C)(C)C)c(O)c(C(C)(C)C)c1)Sc1cc(C(C)(C)C)c(O)c(C(C)(C)C)c1`, with 117%; and `CN1CCc2ccccc2Cc2[nH]c3ccccc3c2CC1`, with 97.8%; and `Nc1c(Br)cc(Br)cc1CN[C@H]1CC[C@H](O)CC1`, with 112%.
For `Nc1c(Br)cc(Br)cc1CN[C@H]1CC[C@H](O)CC1` [Ambroxol hydrochloride], the cell viability (compound concentration: 3 uM) is 93.3%.
Same read-out and setting: then `Nc1c(Br)cc(Br)cc1CN[C@H]1CC[C@H](O)CC1` [Ambroxol], with 115%; and `Oc1ccc(Cl)c2cccnc12`, with 101%; and `Cn1ccnc1S`, with 111 ± 2.7%.
Same read-out and setting: then `Cn1ccnc1S` [Methimazole], with 112 ± 30%; and `CS(=O)(=O)CCNCc1ccc(-c2ccc3ncnc(Nc4ccc(OCc5cccc(F)c5)c(Cl)c4)c3c2)o1` [Lapatinib], with 131%; and `CS(=O)(=O)CCNCc1ccc(-c2ccc3ncnc(Nc4ccc(OCc5cccc(F)c5)c(Cl)c4)c3c2)o1` [Lapatinib ditosylate], with 116%.
On the same count and under the same terms, then `Nc1ccc(-c2nc3ccc(-c4nc5ccc(N)cc5[nH]4)cc3[nH]2)cc1`, with 100%.
With `CC(C)(Oc1ccc(Cl)cc1)C(=O)O` [Clofibric acid], the cell viability (compound concentration: 3 uM) stood at 135%.
For the compound `CC(C)(Oc1ccc(Cl)cc1)C(=O)O`, the cell viability (compound concentration: 3 uM) came to 117%.
Turning to `CN1CCCN=C1COC(=O)C(O)(c1ccccc1)C1CCCCC1` (stereo not drawn), the cell viability (compound concentration: 3 uM) was 111%.
Still for that read-out and setting: then `CN(C)CC/C=C1\c2ccccc2CSc2ccccc21` [Dosulepin hydrochloride], with 109%; and `N[C@@H](Cn1ccc(=O)c(O)c1)C(=O)O` [L-Mimosine from Koa hoale seeds], with 108%.
As for `N[C@@H](Cn1ccc(=O)c(O)c1)C(=O)O` [L-Mimosine], the cell viability under setting [1] worked out at 98.6%.
`CC(=O)NO`: the cell viability (compound concentration: 3 uM) was 101%.
Still for that read-out and setting: then `O=C1O[C@H](CO)[C@@H](O)[C@H](O)[C@H]1O`, with 111%; and `S=C(Nc1ccccc1)Nc1nccs1` [1-Phenyl-3-(2-thiazolyl)-2-thiourea], with 98.3%; and `CCCCCCCCCCC[C@@H](C[C@@H]1OC(=O)[C@H]1CCCCCC)OC(=O)[C@H](CC(C)C)NC=O`, with 101 ± 5.4%.
Consider `COc1ccc(-c2ccc(=N)n(CCCC(=O)O)n2)cc1`, for which the cell viability (compound concentration: 3 uM) is 107%.
For the compound `COc1ccc(-c2ccc(=N)n(CCCC(=O)O)n2)cc1` [Gabazine], where the note is “compound concentration: 3 uM”, the cell viability was determined as 107%.
As for `CO[C@H]1C[C@H](O[C@H]2[C@H](C)[C@@H](O[C@@H]3O[C@H](C)C[C@H](N(C)C)[C@H]3OC(C)=O)[C@@H](C)C[C@@]3(CO3)C(=O)[C@H](C)[C@@H](OC(C)=O)[C@@H](C)[C@@H](C)OC(=O)[C@@H]2C)O[C@@H](C)[C@@H]1OC(C)=O` [Troleandomycin], the cell viability (compound concentration: 3 uM) came to 106 ± 1.6%.
On the same count and under the same terms, to `Cc1cc(C(=O)NNCc2ccccc2)no1` [Isocarboxazid] belongs 124%.
On to `CC(C)(S)[C@@H](N)C(=O)O`, for which, under “compound concentration: 3 uM”, the cell viability is 106%.
For `CC(C)(S)[C@@H](N)C(=O)O` [Penicillamine], where the note is “compound concentration: 3 uM”, the cell viability stood at 109%.
Consider `CSc1ccc(C(=O)c2[nH]c(=O)[nH]c2C)cc1` [Enoximone], for which the cell viability (compound concentration: 3 uM) was 102%.
For the compound `CCC(=O)OCC(=O)[C@@]1(OC(=O)CC)[C@H](C)CC2C3C([C@@H](O)C[C@@]21C)[C@@]1(C)C=CC(=O)C=C1C[C@H]3Cl` (stereo partly drawn), the cell viability (compound concentration: 3 uM) stood at 112%.
Same read-out and setting: then `C[N+](C)(C)CCOC(=O)CCC(=O)OCC[N+](C)(C)C` [Succinylcholine chloride], with 110%; and `C[N+](C)(C)CCOC(=O)CCC(=O)OCC[N+](C)(C)C` [Succinylcholine], with 92.9%; and `CCN1CCc2nc(N)oc2CC1` [B-HT 933 dihydrochloride], with 105%.
The same measure, in the same setting: then `CN(C)c1ccc(O)c2c1C[C@H]1C[C@H]3[C@H](N(C)C)C(O)=C(C(N)=O)C(=O)[C@@]3(O)C(O)=C1C2=O`, with 107%; and `CN(C)c1ccc(O)c2c1C[C@H]1C[C@H]3[C@H](N(C)C)C(O)=C(C(N)=O)C(=O)[C@@]3(O)C(O)=C1C2=O` [Minocycline], with 95%.
The same measure, in the same setting: then `CN(C)c1ccc(O)c2c1C[C@H]1C[C@H]3[C@H](N(C)C)C(O)=C(C(N)=O)C(=O)[C@@]3(O)C(O)=C1C2=O` [Minocycline hydrochloride], with 118 ± 10%; and `CC(Cc1ccc(O)c(O)c1)(NN)C(=O)O` (stereo not drawn) [S-(-)-Carbidopa], with 103%.
In the case of `CCCCCCCCCCCCCCCCOP(=O)([O-])OCC[N+](C)(C)C`, the cell viability (compound concentration: 3 uM) was found to be 122%.
Still for that read-out and setting: to `CCCCCCCCCCCCCCCCOP(=O)([O-])OCC[N+](C)(C)C` [Miltefosine] belongs 116%.
Regarding `Cc1ccsc1/C=C/C1=NCCCN1C`, the cell viability (compound concentration: 3 uM) was 103%.
On the same count and under the same terms, to `Cc1ccsc1/C=C/C1=NCCCN1C` [Morantel tartrate] belongs 94.8%.
Still for that read-out and setting: then `CNC(C)CCC=C(C)C` (stereo not drawn) [Isometheptene mucate], with 82.8%; and `O=C(COc1ccc(Cl)cc1)N1CCN(Cc2ccc3c(c2)OCO3)CC1` [Fipexide hydrochloride], with 102%.
Turning to `O=C(COc1ccc(Cl)cc1)N1CCN(Cc2ccc3c(c2)OCO3)CC1`, for the setting “compound concentration: 3 uM”, the cell viability was 112%.
With `CN(Cc1cnc2nc(N)nc(N)c2n1)c1ccc(C(=O)N[C@@H](CCC(=O)O)C(=O)O)cc1`, the cell viability (compound concentration: 3 uM) came to 94%.
As for `CN(Cc1cnc2nc(N)nc(N)c2n1)c1ccc(C(=O)N[C@@H](CCC(=O)O)C(=O)O)cc1` [Methotrexate], the cell viability (compound concentration: 3 uM) came out at 67.4%.
In the case of `CN(Cc1cnc2nc(N)nc(N)c2n1)c1ccc(C(=O)N[C@@H](CCC(=O)O)C(=O)O)cc1` [Methotrexate hydrate], where the note is “compound concentration: 3 uM”, the cell viability was determined as 91.9%.
For `CCN(CC)CCNc1ccc(CO)c2sc3ccccc3c(=O)c12` [Hycanthone], the cell viability (compound concentration: 3 uM) is 95.9%.
Same read-out and setting: to `CCN(CC)CCNc1ccc(CO)c2sc3ccccc3c(=O)c12` belongs 100 ± 20%; to `CCOc1ccc2nc3cc(N)ccc3c(N)c2c1`, 112%.
With `O=c1c(O)c(-c2ccc(O)c(O)c2)oc2ccccc12`, the cell viability under setting [1] worked out at 70.3%.
On the same count and under the same terms, to `COc1cc(-c2oc3cc(O)ccc3c(=O)c2O)cc(OC)c1OC` [Robinetin trimethyl ether] belongs 95.1%.
For the compound `CCN(CC)CCOC(=O)C(c1ccccc1)c1ccccc1`, the cell viability (compound concentration: 3 uM) is 102%.
Same read-out and setting: then `CCN(CC)CCOC(=O)C(c1ccccc1)c1ccccc1` [Adiphenine hydrochloride], with 98.7%; and `OC(CCCN1CCCCC1)(c1ccccc1)c1ccccc1` [Diphenidol hydrochloride], with 105%.
On the same count and under the same terms, to `CCOC(=O)c1ccc(N)cc1` [Benzocaine] belongs 102%.
The same measure, in the same setting: to `CCOC(=O)c1ccc(N)cc1` belongs 107%.
For the compound `C[C@H]1[C@H](C)CC[C@]2(C(=O)O)CC[C@]3(C)C(=CC[C@@H]4[C@@]5(C)C[C@@H](O)[C@H](O)[C@@](C)(CO)[C@@H]5CC[C@]43C)[C@H]12` [Asiatic acid], under setting [1], the cell viability amounted to 96.9%.
As to `CC(C)(C)CC(C)(C)c1ccc(O)c(Cc2ccc(Cl)cc2Cl)c1`, the cell viability (compound concentration: 3 uM) stood at 80.8%.
As for `CCCN(CCc1ccccc1)C1CCc2c(O)cccc2C1` (racemic) [(±)-PPHT hydrochloride], for the setting “compound concentration: 3 uM”, the cell viability stood at 100%.
On the same count and under the same terms, then `COc1cc2c(CCNC(C)=O)c[nH]c2cc1Cl` [6-Chloromelatonin], with 105%.
Take `Cc1cc2c(C(C)C)c(O)c(O)c(/C=N/n3c(=O)[nH][nH]c3=O)c2c(O)c1-c1c(C)cc2c(C(C)C)c(O)c(O)c(/C=N/n3c(=O)[nH][nH]c3=O)c2c1O`: the cell viability under setting [1] was found to be 111%.

As usually defined, the cell viability is a read-out of living cells in per cent, often relative to untreated cells.
